According to the supplement of paper PMC11438910:
This is one part of the list. The signal is at background level for most entries.

How the values were obtained:
Assay in all cases: fluorescence intensity of antibody binding to polysaccharide-coupled beads; higher = stronger binding
[1] = target: pneumococcal polysaccharide Pn31
[2] = target: pneumococcal polysaccharide Pn32A
[3] = target: pneumococcal polysaccharide Pn32F
[4] = target: pneumococcal polysaccharide Pn33A
[5] = target: pneumococcal polysaccharide Pn33B
[6] = target: pneumococcal polysaccharide Pn33C
[7] = target: pneumococcal polysaccharide Pn33D
[8] = target: pneumococcal polysaccharide Pn33F
[9] = target: pneumococcal polysaccharide Pn34
[10] = target: pneumococcal polysaccharide Pn35A
[11] = target: pneumococcal polysaccharide Pn35B
[12] = target: pneumococcal polysaccharide Pn35C
[13] = target: pneumococcal polysaccharide Pn35F
[14] = target: pneumococcal polysaccharide Pn36
[15] = target: pneumococcal polysaccharide Pn37
[16] = target: pneumococcal polysaccharide Pn38
[17] = target: pneumococcal polysaccharide Pn39
[18] = target: pneumococcal polysaccharide Pn4
[19] = target: pneumococcal polysaccharide Pn40
[20] = target: pneumococcal polysaccharide Pn41A
[21] = target: pneumococcal polysaccharide Pn41F
[22] = target: pneumococcal polysaccharide Pn42
[23] = target: pneumococcal polysaccharide Pn43
[24] = antibody concentration 81.7561 ng/mL
[25] = antibody concentration 437.17 ng/mL
[26] = antibody concentration 2337.65 ng/mL
[27] = antibody concentration 12500 ng/mL
[28] = antibody concentration 0.1 ng/mL
[29] = antibody concentration 0.534724 ng/mL
[30] = antibody concentration 2.8593 ng/mL
[31] = antibody concentration 15.2894 ng/mL

B1: 4-173.4 (protein)
chain 1: QLQLQESGPGLVKPSETLSLTCAVSGGSISSHYWSWIRQPPGKGLEWIGRFSAGGGSTDYNPSLKSRVTISTDTSKNQFTLNLNSVTAADTAVYYCTRGSYTSDYWGQGVLVTVSS
chain 2: QAALTQSPSVSGSPGQSVTISCTGTSSDIGGYIRVSWYQQHPGKAPKLMIYEVSKRPSGVSDRFSGSKSGNTASLTISGLQAEDEADYYCFSYARGDTVLLGGGTRLTVL
Work on B1 yielded a fluorescence intensity [1, 24] of 13 MFI, a fluorescence intensity [1, 25] of 14.5 MFI and a fluorescence intensity [1, 26] of 18.5 MFI. The fluorescence intensity [1, 27] was 52 MFI, the fluorescence intensity [2, 28] was 18 MFI and the fluorescence intensity [2, 29] was 16.5 MFI. The fluorescence intensity [2, 30] was 16 MFI, the fluorescence intensity [2, 31] was 16.8 MFI and the fluorescence intensity [2, 24] was 18 MFI. The fluorescence intensity [2, 25] was 19.5 MFI, the fluorescence intensity [2, 26] was 21.5 MFI and the fluorescence intensity [2, 27] was 35.8 MFI. The fluorescence intensity [3, 28] was 27.8 MFI, the fluorescence intensity [3, 29] was 28 MFI and the fluorescence intensity [3, 30] was 28.5 MFI. It also gave a fluorescence intensity [3, 31] of 28 MFI, a fluorescence intensity [3, 24] of 29 MFI and a fluorescence intensity [3, 25] of 33.5 MFI. The fluorescence intensity [3, 26] was 40.5 MFI, the fluorescence intensity [3, 27] was 56.8 MFI and the fluorescence intensity [4, 28] was 17.5 MFI. It also gave a fluorescence intensity [4, 29] of 18.5 MFI, a fluorescence intensity [4, 30] of 17.5 MFI and a fluorescence intensity [4, 31] of 19 MFI. For the same binder, the fluorescence intensity [4, 24] was 17.5 MFI, the fluorescence intensity [4, 25] was 17.2 MFI and the fluorescence intensity [4, 26] was 24.5 MFI. It also gave a fluorescence intensity [4, 27] of 132 MFI, a fluorescence intensity [5, 28] of 17.8 MFI and a fluorescence intensity [5, 29] of 18.5 MFI. The fluorescence intensity [5, 30] was 17.5 MFI, the fluorescence intensity [5, 31] was 18.2 MFI and the fluorescence intensity [5, 24] was 18 MFI. For the same binder, the fluorescence intensity [5, 25] was 17 MFI, the fluorescence intensity [5, 26] was 20 MFI and the fluorescence intensity [5, 27] was 20.5 MFI. It also gave a fluorescence intensity [6, 28] of 19.5 MFI, a fluorescence intensity [6, 29] of 19.5 MFI and a fluorescence intensity [6, 30] of 21 MFI. It also gave a fluorescence intensity [6, 31] of 19.5 MFI, a fluorescence intensity [6, 24] of 18.5 MFI and a fluorescence intensity [6, 25] of 18.8 MFI. The fluorescence intensity [6, 26] was 21 MFI, the fluorescence intensity [6, 27] was 28 MFI and the fluorescence intensity [7, 28] was 16.5 MFI. For the same binder, the fluorescence intensity [7, 29] was 16 MFI, the fluorescence intensity [7, 30] was 15 MFI and the fluorescence intensity [7, 31] was 15 MFI. It also gave a fluorescence intensity [7, 24] of 17 MFI, a fluorescence intensity [7, 25] of 17 MFI and a fluorescence intensity [7, 26] of 18 MFI. The fluorescence intensity [7, 27] was 19 MFI, the fluorescence intensity [8, 28] was 13 MFI and the fluorescence intensity [8, 29] was 12.5 MFI. The fluorescence intensity [8, 30] was 12.5 MFI, the fluorescence intensity [8, 31] was 12.8 MFI and the fluorescence intensity [8, 24] was 12.5 MFI. For the same binder, the fluorescence intensity [8, 25] was 16 MFI, the fluorescence intensity [8, 26] was 20 MFI and the fluorescence intensity [8, 27] was 78.5 MFI. The fluorescence intensity [9, 28] was 14.2 MFI, the fluorescence intensity [9, 29] was 13.5 MFI and the fluorescence intensity [9, 30] was 14 MFI. The fluorescence intensity [9, 31] was 12.5 MFI, the fluorescence intensity [9, 24] was 12.5 MFI and the fluorescence intensity [9, 25] was 15.5 MFI. It also gave a fluorescence intensity [9, 26] of 15 MFI, a fluorescence intensity [9, 27] of 18.5 MFI and a fluorescence intensity [10, 28] of 17.5 MFI. The fluorescence intensity [10, 29] was 16 MFI, the fluorescence intensity [10, 30] was 16 MFI and the fluorescence intensity [10, 31] was 16 MFI. For the same binder, the fluorescence intensity [10, 24] was 15.8 MFI, the fluorescence intensity [10, 25] was 16.5 MFI and the fluorescence intensity [10, 26] was 19 MFI. For the same binder, the fluorescence intensity [10, 27] was 34 MFI, the fluorescence intensity [11, 28] was 18 MFI and the fluorescence intensity [11, 29] was 19 MFI. The fluorescence intensity [11, 30] was 16.5 MFI, the fluorescence intensity [11, 31] was 17.5 MFI and the fluorescence intensity [11, 24] was 19 MFI. The fluorescence intensity [11, 25] was 18 MFI, the fluorescence intensity [11, 26] was 18.5 MFI and the fluorescence intensity [11, 27] was 33.8 MFI. It also gave a fluorescence intensity [12, 28] of 19.8 MFI, a fluorescence intensity [12, 29] of 20 MFI and a fluorescence intensity [12, 30] of 19.5 MFI. It also gave a fluorescence intensity [12, 31] of 19.5 MFI, a fluorescence intensity [12, 24] of 19 MFI and a fluorescence intensity [12, 25] of 19.2 MFI. The fluorescence intensity [12, 26] was 21 MFI, the fluorescence intensity [12, 27] was 22 MFI and the fluorescence intensity [13, 28] was 17.5 MFI. The fluorescence intensity [13, 29] was 19.8 MFI, the fluorescence intensity [13, 30] was 17 MFI and the fluorescence intensity [13, 31] was 20 MFI. For the same binder, the fluorescence intensity [13, 24] was 17.5 MFI, the fluorescence intensity [13, 25] was 20.8 MFI and the fluorescence intensity [13, 26] was 19.5 MFI. The fluorescence intensity [13, 27] was 21 MFI, the fluorescence intensity [14, 28] was 15 MFI and the fluorescence intensity [14, 29] was 16.5 MFI. For the same binder, the fluorescence intensity [14, 30] was 15.5 MFI, the fluorescence intensity [14, 31] was 15.5 MFI and the fluorescence intensity [14, 24] was 17 MFI. The fluorescence intensity [14, 25] was 18 MFI, the fluorescence intensity [14, 26] was 19 MFI and the fluorescence intensity [14, 27] was 47 MFI. For the same binder, the fluorescence intensity [15, 28] was 26.2 MFI, the fluorescence intensity [15, 29] was 25 MFI and the fluorescence intensity [15, 30] was 26 MFI. It also gave a fluorescence intensity [15, 31] of 27 MFI, a fluorescence intensity [15, 24] of 26.5 MFI and a fluorescence intensity [15, 25] of 29.5 MFI. For the same binder, the fluorescence intensity [15, 26] was 41.8 MFI, the fluorescence intensity [15, 27] was 156 MFI and the fluorescence intensity [16, 28] was 24.5 MFI. For the same binder, the fluorescence intensity [16, 29] was 24.8 MFI, the fluorescence intensity [16, 30] was 25 MFI and the fluorescence intensity [16, 31] was 25.5 MFI. The fluorescence intensity [16, 24] was 26.5 MFI, the fluorescence intensity [16, 25] was 25.5 MFI and the fluorescence intensity [16, 26] was 26.5 MFI. The fluorescence intensity [16, 27] was 33.5 MFI, the fluorescence intensity [17, 28] was 18 MFI and the fluorescence intensity [17, 29] was 18.8 MFI. It also gave a fluorescence intensity [17, 30] of 18.5 MFI, a fluorescence intensity [17, 31] of 17.8 MFI and a fluorescence intensity [17, 24] of 17.5 MFI. It also gave a fluorescence intensity [17, 25] of 19 MFI, a fluorescence intensity [17, 26] of 19 MFI and a fluorescence intensity [17, 27] of 31.5 MFI. It also gave a fluorescence intensity [18, 28] of 17 MFI, a fluorescence intensity [18, 29] of 18.5 MFI and a fluorescence intensity [18, 30] of 19 MFI. The fluorescence intensity [18, 31] was 18 MFI, the fluorescence intensity [18, 24] was 19 MFI and the fluorescence intensity [18, 25] was 22.8 MFI. It also gave a fluorescence intensity [18, 26] of 25.5 MFI, a fluorescence intensity [18, 27] of 36.8 MFI and a fluorescence intensity [19, 28] of 18.2 MFI. It also gave a fluorescence intensity [19, 29] of 17 MFI, a fluorescence intensity [19, 30] of 16.8 MFI and a fluorescence intensity [19, 31] of 16.5 MFI. It also gave a fluorescence intensity [19, 24] of 16 MFI, a fluorescence intensity [19, 25] of 17.2 MFI and a fluorescence intensity [19, 26] of 21.8 MFI. For the same binder, the fluorescence intensity [19, 27] was 54.2 MFI, the fluorescence intensity [20, 28] was 23 MFI and the fluorescence intensity [20, 29] was 25 MFI. It also gave a fluorescence intensity [20, 30] of 25 MFI, a fluorescence intensity [20, 31] of 24 MFI and a fluorescence intensity [20, 24] of 23.5 MFI. It also gave a fluorescence intensity [20, 25] of 25.5 MFI, a fluorescence intensity [20, 26] of 25 MFI and a fluorescence intensity [20, 27] of 32.8 MFI. It also gave a fluorescence intensity [21, 28] of 12.5 MFI, a fluorescence intensity [21, 29] of 13 MFI and a fluorescence intensity [21, 30] of 12 MFI. The fluorescence intensity [21, 31] was 12.8 MFI, the fluorescence intensity [21, 24] was 12 MFI and the fluorescence intensity [21, 25] was 14 MFI. For the same binder, the fluorescence intensity [21, 26] was 16 MFI, the fluorescence intensity [21, 27] was 20.8 MFI and the fluorescence intensity [22, 28] was 12 MFI. It also gave a fluorescence intensity [22, 29] of 12 MFI, a fluorescence intensity [22, 30] of 12 MFI and a fluorescence intensity [22, 31] of 12 MFI. It also gave a fluorescence intensity [22, 24] of 12 MFI, a fluorescence intensity [22, 25] of 12 MFI and a fluorescence intensity [22, 26] of 12.5 MFI. The fluorescence intensity [22, 27] was 24.5 MFI, the fluorescence intensity [23, 28] was 15 MFI and the fluorescence intensity [23, 29] was 15.2 MFI. It also gave a fluorescence intensity [23, 30] of 16 MFI, a fluorescence intensity [23, 31] of 15.5 MFI and a fluorescence intensity [23, 24] of 17 MFI. For the same binder, the fluorescence intensity [23, 25] was 18.5 MFI, the fluorescence intensity [23, 26] was 23 MFI and the fluorescence intensity [23, 27] was 96 MFI.
